## Library screen at single concentrations

The values are deposited in ChEMBL (CHEMBL3988442, “University of Dundee, Small-Polar-MMV Screening Library” (2021)).

Values are the deposited “Percent Effect”, in %. The record does not define 0% and 100%; most values in the screen are far below 50% and negative numbers occur (in some assays of this library far below -100). This is an unselected part of the compounds tested. Two or more numbers in one place are separate tests of the same structure; such repeats can differ widely.

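Growth of Mycobacterium tuberculosis over 4 days (cholesterol / DPPC medium with tyloxapol); the read-out is not stated. Compounds at 50 µM. Higher reads as more growth inhibition (inferred: compounds with an IC50 in retests scored well above the rest). Of about 69,000 compounds tested this way, about 370 (0.54%) reached 50% or more in at least one test.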

* O=C(O)C(F)(F)F.c1cc(CN2Cc3nnn(CC4CC4)c3C(COCC3CC3)C2)co1 (stereo not shown) : 9.144%
* CC(C)CCn1cc(C(C(=O)O)N2CCC(N3CCSCC3)CC2)cn1 (stereo not shown) : -7.215%
* CC(=O)NC1CCCN(Cc2ccc(OCc3ccccn3)cc2)C1 (stereo not shown) : 15.81%
* [H][C@]12CN(c3ncccn3)C[C@@]1([H])S(=O)(=O)CC[C@@H]2C(=O)NCC(C)C : -38.17%
* CCC[C@H]1CN(c2cncc(C(=O)N3CCCCC3)n2)C[C@@H]1N(C)C : 14.19%
* Cc1ccc(CN2CCN(C(=O)CCc3nc(Cl)n[nH]3)CC2=O)cc1 : -5.301%
* CC(C)c1cc(C(=O)N2CCc3ccccc3C2C(=O)O)n(C)n1 (stereo not shown) : 1.307%
* Cc1cc(N(Cc2cccnc2)C2CC2)n2nc(C(F)(F)F)nc2n1 : -21.42%
* CCn1c(C)nnc1SCCNC(=O)c1cccc2ccnn12 : -55.16%
* Cc1noc(C)c1-c1cncc(C2CCCN2Cc2cn(C)cn2)n1 (stereo not shown) : -3.503%
* COC(=O)CCCC(=O)N1CCC(CO)(CCc2ccccc2)CC1 : 11.5%
* CCS(=O)(=O)N(C)CCCNCc1c(C)nn(C)c1N(C)C : -20.41%
* CN1CCOC(CNCc2cccc(OCc3ccccn3)c2)C1 (stereo not shown) : 5.561%
* O=C(NCCNc1ncccn1)C1CCN(C(=O)C2CC2)CC1 : -13.68%
* O=C(c1csnn1)N1CCCC(n2cncn2)C1 (stereo not shown) : 2.231%
* COc1ccccc1-c1nnc([C@H]2CCN(C(=O)C3CC3)C2)o1 : -8.88%
* Cc1cc(NC(=O)NCCc2ccccc2)n(C)n1 : -5.225%
* COc1ccc(C(=O)N2CCOC(Cc3cccc(C(F)(F)F)c3)C2)o1 (stereo not shown) : 45.75%
* CCSCCNC(=O)C(c1cccc(F)c1)N(C)C (stereo not shown) : -3.93%
* CNC(=O)c1cn[nH]c1C1CCCN1C(=O)c1ccccn1 (stereo not shown) : 5.771%
* Cc1ccc(OCc2occc2C(=O)O)cc1 : -3.943%
* COc1c(Cl)cccc1NCc1csc(NC(C)=O)n1 : 19.4%
* c1cc(CN2CCOCC3(CCNCC3)C2)ccn1 : -24.5% and -27.54%
* Cc1cc(C)n(Cc2ccc(-c3noc(C(=O)NCCCO)n3)cc2)n1 : 4.682%
* COc1ccc(Br)cc1CCC(=O)N1CCCC1 : 14.99%
* O=C(O)C(F)(F)F.O=C(O)C(F)(F)F.[H][C@@]12CN(Cc3ccco3)C[C@]1([H])[C@H](OC)CCN2Cc1c(C)noc1C : 18.43%
* COC1CC2(CCN(Cc3ccc4c(c3)OCO4)CC2)C1 : 2.578%
* Cc1nc(C)n(CC2CN(CCc3cccs3)CCO2)n1 (stereo not shown) : -4.515% and -2.184%
* Cc1nc2ccccc2nc1CN1CCCC1c1c(C)nn(C)c1C (stereo not shown) : -12.53%
* O=C(O)C(F)(F)F.[H][C@]12CCN(c3ccccn3)[C@@]1([H])CC[C@@H](COCC(=O)N(C)C)O2 : -26.49%
* CN(C)Cc1ccccc1NC(=O)c1ccc(C#N)cc1 : 11.65%
* COC(=O)C(NC(=O)c1ccco1)c1cc(F)ccc1F (stereo not shown) : -6.656%
* Cc1cnn(CC2CCCN2C(=O)c2cccc(-n3ccc(C)n3)c2)c1 (stereo not shown) : 10.2%
* CC(C)CNC(=O)NC(=O)CNc1ccccc1SCC(C)C#N (stereo not shown) : -14.81%
* Cc1n[nH]c2nc(-c3cccc(Cl)c3)cc(C(=O)O)c12 : -0.9933%
* COc1ccccc1N1CCC(CNCc2cccc(O)c2)C1 (stereo not shown) : 15.96%
* [H][C@]12CC[C@]([H])(CN(c3ncccn3)C1)N(C(=O)c1cc(C(C)C)oc1C)C2 : 6.766% and -5.863%
* COC(=O)C1CN(Cc2nc(C(C)(C)C)cs2)C[C@@H](C)O1 (stereo partly shown) : 7.172%
* Cc1ccsc1C(=O)N1CCn2cnc(COCC3CC3)c2C1 : -28.92% and -10.64%
* CCN(CC(C)C#N)C(=O)CSc1ccc(C(F)(F)F)cn1 (stereo not shown) : 25.69%
* Cc1noc(C)c1CN1CCn2cc(CN3CCCC3)nc2C1.O=C(O)C(F)(F)F.O=C(O)C(F)(F)F : 8.983%
* CNc1ccc(Cl)cc1C(=O)N1CCC(Cn2cc(CN)nn2)CC1 : 9.843%

Repeated from the top, 5 entries:

- O=C(O)C(F)(F)F.c1cc(CN2Cc3nnn(CC4CC4)c3C(COCC3CC3)C2)co1 (stereo not shown) : 9.144%
- CC(C)CCn1cc(C(C(=O)O)N2CCC(N3CCSCC3)CC2)cn1 (stereo not shown) : -7.215%
- CC(=O)NC1CCCN(Cc2ccc(OCc3ccccn3)cc2)C1 (stereo not shown) : 15.81%
- [H][C@]12CN(c3ncccn3)C[C@@]1([H])S(=O)(=O)CC[C@@H]2C(=O)NCC(C)C : -38.17%
- CCC[C@H]1CN(c2cncc(C(=O)N3CCCCC3)n2)C[C@@H]1N(C)C : 14.19%